Values from PubChem BioAssay AID1259405 (NCATS, 2018)

Assay: 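Mouse-designed siRNAs used to find CHO productivity engineering targets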 (primary screen)
System: Chinese hamster CHO-K1 ovary cells with stable secreted eGFP expression
Reagents: single siRNA against mouse genes, 0.8 pmol siRNA per well (2 µl of 400 nM stock)
Timing: 3 days
Measurement: 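Percent of the per-plate non-targeting control median for intracellular GFP per well by laser scanning cytometry and for cell viability by ATP luminescence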
Direction: GFP, % of control: higher = more GFP per well, higher productivity; viability (ATP), % of control: higher = more viable cells (more ATP)
Hit rule: 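a knock-down is called active if GFP reaches 120% or more of non-targeting control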
Shown is a random part of about 50,000 reagents tested. About 4,000 of all reagents (8%) count as active. 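Mouse siRNA library applied to hamster cells; one well for each siRNA.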 Unmarked entries are inactive. Reagents against one gene are numbered here.

Target gene | reagent | GFP, % of control | viability (ATP), % of control
Cramp1 | 1 | 75.4 | 59
Cramp1 | 2 | 79 | 109
Cramp1 | 3 | 102 | 88.3
Pgghg | 1 | 59.2 | 53.9
Pgghg | 2 | 79.2 | 100
Pgghg | 3 | 92.2 | 40.7
Fam220a | 1 | 73.9 | 69
Fam220a | 2 | 68.5 | 63.9
Fam220a | 3 | 89 | 83.2
Taf1b | 1 | 105 | 67.9
Taf1b | 2 | 106 | 130
Taf1b | 3 | 99 | 126
Necab1 | 1 | 61.6 | 54.7
Necab1 | 2 | 97.5 | 78.4
C130026L21Rik | 1 | 70.8 | 59.8
C130026L21Rik | 2 | 64.4 | 70.7
C130026L21Rik | 3 | 136 (active) | 154
Or13a28 | 1 | 114 | 35
Or13a28 | 2 | 66.3 | 70.1
Or13a28 | 3 | 32.9 | 47.4
Samt3 | 1 | 90 | 88.8
Samt3 | 2 | 115 | 87.4
Samt3 | 3 | 61.5 | 71.3
Elavl1 | 1 | 83.3 | 109
Elavl1 | 2 | 80.1 | 65.6
Elavl1 | 3 | 85.7 | 114
Slc38a7 | 1 | 88.5 | 32.2
Slc38a7 | 2 | 69.9 | 80.3
Slc38a7 | 3 | 71.1 | 60.4
Or5p6 | 1 | 64.5 | 50
Or5p6 | 2 | 79.8 | 86.1
Or5p6 | 3 | 87.9 | 68.3
Lst1 | 1 | 57.8 | 59.4
Lst1 | 2 | 174 (active) | 82.3
Lst1 | 3 | 107 | 72.9
Dclk3 | 1 | 65.9 | 141
Dclk3 | 2 | 0.0238 | 42.3
Tssk1 | 1 | 66.3 | 52.5
Eppin | 1 | 53.8 | 70.8
Eppin | 2 | 74.2 | 67.4
Eppin | 3 | 145 (active) | 105
Septin6 | 1 | 39.5 | 65.7
Septin6 | 2 | 66.8 | 80.6
Ptpn9 | 1 | 105 | 97.4
Ptpn9 | 2 | 80.6 | 36.1
Ptpn9 | 3 | 82.6 | 54.5
Capn1 | 1 | 60.2 | 75
Capn1 | 2 | 64.2 | 39.1
Capn1 | 3 | 94.8 | 99.5
Stoml2 | 1 | 68.6 | 51.4
Stoml2 | 2 | 90.2 | 93.3
Stoml2 | 3 | 58.8 | 63.9
Cyb5r3 | 1 | 80.7 | 107
Cyb5r3 | 2 | 47.9 | 87.4
Cyb5r3 | 3 | 83.4 | 72.2
Hmgn5 | 1 | 83.9 | 45
Hmgn5 | 2 | 45.2 | 47.8
Hmgn5 | 3 | 63.2 | 63

5 entries from above, set out differently.
{"Target gene":"Ptpn9","reagent":1,"GFP, % of control":105,"viability (ATP), % of control":97.4}
{"Target gene":"Ptpn9","reagent":2,"GFP, % of control":80.6,"viability (ATP), % of control":36.1}
{"Target gene":"Ptpn9","reagent":3,"GFP, % of control":82.6,"viability (ATP), % of control":54.5}
{"Target gene":"Capn1","reagent":1,"GFP, % of control":60.2,"viability (ATP), % of control":75}
{"Target gene":"Capn1","reagent":2,"GFP, % of control":64.2,"viability (ATP), % of control":39.1}
